The values that follow come from patent US20230212294A1.

Assay [1] deals with B7-H3 on CHOK cells overexpressing B7-H3. As to the kind of experiment: flow cytometry on CHO cells that artificially express B7-H3. For orientation: In flow cytometry, cells or beads pass a laser one at a time.
For assay [2], the target named is monkey B7-H3-his (monkey). The experiment in a line: ELISA, monkey B7-H3-his coated at 2 µg/mL. Background: ELISA stands for enzyme-linked immunosorbent assay.

Residue numbers refer to the chain shown, from its start. Results are given in words; binding and its absence hold for the method and conditions named. For some of these results: Binding calls can cover weak binding; strength is not graded here.

B1: IL-P6-D06 (antibody, V domains shown)
VH: QVQLQQSGPELVRPGVSVKISCKGSGYTFTDYAIHWVKQSHAKSLEWIGVINTYSGNTNYNQKFKGRATMTVDKSSSTAYMELARLTSEDSAIYFCARGVTYGSGYPYWYFDVWGAGTTVTVSS
VL: DIVMTQSQKFMSTSVGDRVSVTCKASQNVGTNVAWYQQKPGQSPKALIYSASYRYSGVPDRFTGSGSGTDFTLTISNVQSEDLAEYFCQQYNSYPYTFGGGTKLEIK
B1: the binding entry in assay [1] is “binds”.

B2: IL-P7-A06 (antibody, V domains shown)
VH: QVQLQQSGPEVVRPGVSVKISCKGSGYTFTDYAMHWVKQSHAKSLEWIGIINTYNGNTNYNQKFKGKATMTVDKSSSTAYMEFARLTSEDSAIYYCARSRGPWDRYFDVWGAGTTVTVSS
VL: B1 VL with N32A, A46L, Y53N, S56T, V78M, E85D, N92S, Y96F, G100S
Turning to B2, the values for the binding entry in assay [1] and in assay [2] were “binds” and “no binding”, respectively.

B3: IL-P5-B01 (antibody, V domains shown)
VH: EVQLQESGPSLVKPSQTLSLTCSVTGDSITSGSWNWIRKFPGNKLEYMGYISYSGSIYYNPSLKSRISITRDTSKNQYYLQLNSVTTEDTATYYCARGNPAWFAYWGQGTLVTVSA
VL: B1 VL
As to B3, the binding result in assay [1] was “binds”.
